Results on four molecules are retold here after publication PMC6716676, “Chemokine signaling links cell-cycle progression and cilia formation for left–right symmetry breaking” (PLoS Biology, 2019).

Assay [1] deals with T1, Flag-zFoxj1a (zebrafish forkhead box j1a) (zebrafish) (UniProt F1QDF8).
T1 sequence: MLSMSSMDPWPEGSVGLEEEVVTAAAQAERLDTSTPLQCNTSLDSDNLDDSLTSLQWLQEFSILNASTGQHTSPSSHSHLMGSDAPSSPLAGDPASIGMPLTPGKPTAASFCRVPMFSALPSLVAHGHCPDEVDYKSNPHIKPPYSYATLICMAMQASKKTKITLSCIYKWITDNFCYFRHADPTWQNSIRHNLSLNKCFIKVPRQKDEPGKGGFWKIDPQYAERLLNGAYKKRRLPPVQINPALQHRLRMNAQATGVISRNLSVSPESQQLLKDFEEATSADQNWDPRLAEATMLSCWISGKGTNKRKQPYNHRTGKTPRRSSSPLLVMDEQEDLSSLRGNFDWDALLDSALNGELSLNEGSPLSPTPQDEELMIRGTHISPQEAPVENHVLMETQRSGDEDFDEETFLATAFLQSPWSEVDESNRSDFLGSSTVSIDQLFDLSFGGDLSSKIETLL
The experiment in a line: co-IP; HEK293T cells transfected with the tagged proteins, in some panels MG132 for 5 hours prior to harvest or CDK4 / CDK4-K38M co-expressed; TNE lysis buffer, anti-Flag-agarose or protein A-Sepharose beads, 4 °C for 4 hours.

Assay [2] addresses T2, Flag-Psmd4b (proteasome 26S subunit, non-ATPase 4b), expressed in HEK293T (zebrafish) (UniProt Q561Y1).
T2 sequence: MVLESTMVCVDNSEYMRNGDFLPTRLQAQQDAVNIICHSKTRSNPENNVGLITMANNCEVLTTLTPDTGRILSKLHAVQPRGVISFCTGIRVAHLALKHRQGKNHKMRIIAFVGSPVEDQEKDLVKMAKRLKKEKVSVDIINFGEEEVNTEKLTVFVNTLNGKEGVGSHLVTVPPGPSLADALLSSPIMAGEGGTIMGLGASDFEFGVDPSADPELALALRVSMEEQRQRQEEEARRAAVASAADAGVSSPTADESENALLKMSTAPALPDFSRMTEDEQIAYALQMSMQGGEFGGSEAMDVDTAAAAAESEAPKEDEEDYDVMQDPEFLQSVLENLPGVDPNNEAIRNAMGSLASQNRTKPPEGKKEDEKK
The description is as above.

Assay [3] concerns the target Myc-CDK4 expressed in zebrafish embryos (zebrafish). The experiment in a line: co-IP; lysates of bud-stage zebrafish embryos expressing the tagged partner from injected mRNA; TNE lysis buffer (10 mM Tris-HCl pH 7.5, 150 mM NaCl, 2 mM EDTA, 0.5% Nonidet P-40), 4 °C for 4 hours; endogenous zFoxj1a detected by blot.

Results are given in words; binding and its absence hold for the method and conditions named. In cells and extracts the contact can be indirect. A result given as binding can be weak or reduced; the word gives no strength. For some of these results: Tags and fused reporters may be left off the sequences shown.

In the case of CDK4-K38M (zebrafish) (enzyme), the binding result in assay [1] is given as “no binding”.
Regarding HA-zFoxj1a-K20R (from UniProt F1QDF8), the binding entry in assay [2] is “binds”.
For the molecule “Myc-CDK4 (cyclin-dependent kinase 4), expressed in HEK293T (zebrafish) (enzyme)”, in assay [1], the binding entry is recorded as “binds”.

B1: Flag-zFoxj1a (zebrafish forkhead box j1a) (natural protein, UniProt F1QDF8 1-458, looked up)
chain: T1 sequence
notes: forkhead box j1a (Foxj1a), zebrafish; In the self-association co-IP the second copy carried an HA tag instead of Flag (HA-zFoxj1a); also called Flag-tagged zFoxj1a; wild-type zFoxj1a; source: HEK293T, transfected, in lysate
Take B1: the binding result in assay [3] is “binds”.
